From publication doi:10.1101/2025.04.04.647210
Results are given in words; binding and its absence hold for the method and conditions named. In cells and extracts the contact can be indirect. Some results given as binding are weak or reduced against the parent protein; the word gives no strength.

Amino acid sequences for entries named in this document (tags omitted).
UniProt P46938: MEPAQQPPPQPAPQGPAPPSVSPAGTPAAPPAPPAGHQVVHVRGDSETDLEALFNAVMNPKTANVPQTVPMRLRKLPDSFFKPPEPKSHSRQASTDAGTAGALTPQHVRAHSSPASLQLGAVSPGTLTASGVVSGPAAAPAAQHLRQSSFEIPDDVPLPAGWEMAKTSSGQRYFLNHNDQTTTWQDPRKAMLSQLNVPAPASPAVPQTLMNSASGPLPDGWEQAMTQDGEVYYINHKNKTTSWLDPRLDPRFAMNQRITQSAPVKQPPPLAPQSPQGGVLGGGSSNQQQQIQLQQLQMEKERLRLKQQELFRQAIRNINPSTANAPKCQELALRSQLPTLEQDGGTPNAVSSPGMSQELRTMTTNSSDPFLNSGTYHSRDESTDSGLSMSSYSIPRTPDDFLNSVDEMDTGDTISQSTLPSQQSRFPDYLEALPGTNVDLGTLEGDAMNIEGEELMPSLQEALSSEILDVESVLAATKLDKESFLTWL
UniProt Q9EPK5: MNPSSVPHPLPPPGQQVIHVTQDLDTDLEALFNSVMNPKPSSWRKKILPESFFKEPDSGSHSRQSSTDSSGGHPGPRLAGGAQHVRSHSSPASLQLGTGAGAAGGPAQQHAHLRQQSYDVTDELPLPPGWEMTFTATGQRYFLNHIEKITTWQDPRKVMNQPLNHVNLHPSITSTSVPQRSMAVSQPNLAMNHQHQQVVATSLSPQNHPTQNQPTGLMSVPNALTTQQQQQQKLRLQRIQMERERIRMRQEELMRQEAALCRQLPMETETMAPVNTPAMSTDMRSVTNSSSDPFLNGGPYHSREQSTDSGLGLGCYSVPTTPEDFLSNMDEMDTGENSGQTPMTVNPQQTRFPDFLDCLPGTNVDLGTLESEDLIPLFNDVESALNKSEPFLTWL

Biological target: HSP90α (mouse (endogenous in murine fibroblasts)) (UniProt P07901)
Assay: co-IP

| binding | Substance |
| --- | --- |
| binds | Yap (from UniProt P46938 1-488) |
| binds | Taz (from UniProt Q9EPK5 1-395) |
